From patent publication US11504380B2, “Method of treatment of cirrhosis” (INVENTIVA, priority 2019, dated 2022)

Test system: rat model of cirrhosis induced by the administration of thioacetamide (TAA)
Experiment: Systemic and hepatic hemodynamics, ascites and body/organ weights in TAA-induced cirrhotic rats
Type: in vivo, Sprague Dawley rats
Conditions: TAA-exposed rats, 100 mg/kg/day orally for two weeks
Text: Lanifibranor has been assessed in a rat model of cirrhosis induced by the administration of thioacetamide (TAA), which administration leads to the development of fibrosis in the early time points and then of cirrhosis in the late time points, turning for the majority of the animals to decompensated cirrhosis. Sprague Dawley rats (12-15 rats per groups) were intraperitoneally administered TAA (twice a week) for a period of twelve weeks to ensure reaching decompensated cirrhosis. At the end of this period, a TAA detoxification period of four days was observed. The rats were then orally administered for two weeks with either lanifibranor at 100 mg/kg/day in vehicle (methylcellulose 1%+poloxamer-188 0.1%), or with vehicle alone (control). At the end of the two weeks of treatment in vivo systemic and hepatic hemodynamics were determined and rats were then sacrificed, and plasma samples and liver tissue were harvested. The hemodynamics measurements were obtained as follow: mean arterial pressure (MAP) and heart rate (HR) were measured by cannulating the femoral artery; portal pressure (PP) was measured by cannulating the ileocolic vein, both with a heparinized p50 catheter (Portex) connected to a pressure probe; portal blood flow (PBF) was determined with the help of specific non-constrictive perivascular ultrasonic transit-time flow probe (Transonic Systems Inc.).

For `O=C(O)CCCc1cc2cc(Cl)ccc2n1S(=O)(=O)c1ccc2ncsc2c1` [Lanifibranor, 4-[1-(1,3-benzothiazol-6-ylsulfonyl)-5-chloroindol-2-yl]butanoic acid], the Body weight was 484 ± 16 g, the “HR (heart rate)” value was 334 ± 8 bpm and the Liver weight was 14.1 ± 0.7 g. The Body weight (listed as lanifibranor) was “No change”, the “HR (heart rate)” value (listed as lanifibranor) was “No change” and the Liver weight (listed as lanifibranor) was “No change”.
